Results deposited as PubChem BioAssay AID602196 (INSERM, 2012)
Assay: 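Modifiers of cisplatin sensitivity in A549 cells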. System: human A549 lung cancer cells. Reagents: siRNA pair against human genes. Time to read-out: 48 h transfection before cisplatin; time from cisplatin to read-out not stated. Treatment: cisplatin at a dose killing half of control-siRNA cells; exact dose and duration not given. Measured: 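Cisplatin cell death as a shift from the 50% death seen with control siRNA; siRNAs toxic or growth-blocking alone scored 0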. Scale: two-siRNA summed score (-2 to +2): higher = both siRNAs protect from cisplatin killing; -2 means both sensitise. Active means: 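Each siRNA scores 0 if harmful alone by LDH or WST-1, otherwise +1 if it reduces and -1 if it increases cisplatin killing; a gene is active when both siRNAs agree (sum +2 or -2)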. Meaning of the calls: active = both siRNAs shift cisplatin killing the same way; inactive = no consistent shift, or siRNA harmful alone.
The whole screen tested about 23,000 reagents; shown is an unselected part. 455 of them (2%) count as active. 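Active includes both protection and sensitisation; some change values fall well beyond the stated -50 to +50 range.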 Reagents against one gene are numbered here. Further read-outs or replicates are left out here. Not given: the amount of reagent.

two-siRNA summed score (-2 to +2), by target and reagent
LOC441667: #1 0 inactive
PPM1F: #1 -1 inactive
TMEM150A: #1 1 inactive
LOC440003: #1 0 inactive
PLD6: #1 0 inactive
ACADSB: #1 0 inactive
LOC388494: #1 0 inactive
OPN1LW: #1 -1 inactive
FBLN1: #1 1 inactive
LOC388642: #1 0 inactive
CDK5: #1 0 inactive
PABPC3: #1 -1 inactive
SH2B2: #1 0 inactive
UGT1A10: #1 0 inactive
LINC00668: #1 0 inactive
GPAT3: #1 0 inactive
LOC387775: #1 0 inactive
LOC441389: #1 1 inactive
XIRP1: #1 0 inactive
GJB4: #1 0 inactive
LOC339562: #1 0 inactive
LOC440551: #1 0 inactive
COL5A3: #1 0 inactive
BPHL: #1 0 inactive

A run of entries from the list above:
two-siRNA summed score (-2 to +2), by target and reagent
FBLN1: #1 1 inactive
LOC388642: #1 0 inactive
CDK5: #1 0 inactive
PABPC3: #1 -1 inactive

More records follow.
two-siRNA summed score (-2 to +2), by target and reagent
SERPINB7: #1 0 inactive
KRT86: #1 1 inactive
GPR139: #1 1 inactive
FGF13: #1 0 inactive
PTBP3: #1 0 inactive
KIAA0650: #1 0 inactive
GFOD1: #1 0 inactive; #2 1 inactive
PMAIP1: #1 0 inactive
ANO8: #1 0 inactive
ASPRV1: #1 -1 inactive
POMT2: #1 0 inactive
LOC199899: #1 0 inactive
LCOR: #1 0 inactive; #2 0 inactive
LRP10: #1 0 inactive
NACA: #1 -2 active
RAD51AP1: #1 0 inactive
LOC388129: #1 0 inactive
UPF3B: #1 0 inactive
LHCGR: #1 0 inactive
OR52E2: #1 1 inactive
LOC388131: #1 0 inactive
UCHL5: #1 0 inactive
TGIF2LY: #1 0 inactive
LOC441092: #1 0 inactive
ZFR: #1 0 inactive
ZIC2: #1 1 inactive
LOC400586: #1 0 inactive
LOC402485: #1 0 inactive
LOC126755: #1 0 inactive
CWF19L2: #1 0 inactive
NUBPL: #1 -1 inactive
